From PMC12145428
These are yes or no findings as the source states them, for the method shown. Binding seen in cells or lysates may run through a third protein. Some entries that bind do so weakly or less than the wild type.

By UniProt entry, the sequences of proteins in these tests, tags left out. Where a name states a change or a piece, a line headed by the entry shows the natural chain unless it says otherwise. Chains listed by the source or under a name are the forms on record and can include a tag or linker.
FLAG-tagged MRG15S (plasmid pCMV-3Tag-6-M4S) (P60762, form named): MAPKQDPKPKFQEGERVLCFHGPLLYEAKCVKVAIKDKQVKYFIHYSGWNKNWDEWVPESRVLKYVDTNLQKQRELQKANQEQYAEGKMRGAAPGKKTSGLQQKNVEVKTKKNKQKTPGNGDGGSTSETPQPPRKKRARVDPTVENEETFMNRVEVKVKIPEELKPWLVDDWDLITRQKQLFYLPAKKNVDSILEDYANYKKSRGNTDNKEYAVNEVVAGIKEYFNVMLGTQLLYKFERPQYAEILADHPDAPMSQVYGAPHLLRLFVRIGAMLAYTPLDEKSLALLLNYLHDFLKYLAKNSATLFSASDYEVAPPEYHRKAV
UniProt P26599: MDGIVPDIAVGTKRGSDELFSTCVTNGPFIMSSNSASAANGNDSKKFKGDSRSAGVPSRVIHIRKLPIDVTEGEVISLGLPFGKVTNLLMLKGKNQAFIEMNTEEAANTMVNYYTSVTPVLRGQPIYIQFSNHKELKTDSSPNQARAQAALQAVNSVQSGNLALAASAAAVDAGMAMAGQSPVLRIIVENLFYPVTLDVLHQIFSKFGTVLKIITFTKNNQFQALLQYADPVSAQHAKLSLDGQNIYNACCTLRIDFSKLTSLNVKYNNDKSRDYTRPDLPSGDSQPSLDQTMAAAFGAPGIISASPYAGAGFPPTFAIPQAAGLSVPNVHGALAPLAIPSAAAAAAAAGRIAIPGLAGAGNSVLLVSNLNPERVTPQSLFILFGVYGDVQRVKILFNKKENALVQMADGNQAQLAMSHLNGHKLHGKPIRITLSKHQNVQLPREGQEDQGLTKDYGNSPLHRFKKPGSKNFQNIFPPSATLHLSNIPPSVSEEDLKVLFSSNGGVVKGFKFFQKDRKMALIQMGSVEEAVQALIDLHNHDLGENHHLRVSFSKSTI

Molecular target: FLAG-tagged MRG15S (plasmid pCMV-3Tag-6-M4S) (mouse) (UniProt P60762)
Assay: co-IP; cell lysate with the FLAG-fusion protein on ANTI-FLAG M2 affinity gel overnight at 4 °C; washes in TBS (50 mM Tris-HCl, 150 mM NaCl, pH 7.4); elution with 3×FLAG peptide; Western blot

For PTBP1 (from UniProt P26599 1-557), the binding was “binds”.

B1: Rb (protein, UniProt P06400 1-928)
chain: MPPKTPRKTAATAAAAAAEPPAPPPPPPPEEDPEQDSGPEDLPLVRLEFEETEEPDFTALCQKLKIPDHVRERAWLTWEKVSSVDGVLGGYIQKKKELWGICIFIAAVDLDEMSFTFTELQKNIEISVHKFFNLLKEIDTSTKVDNAMSRLLKKYDVLFALFSKLERTCELIYLTQPSSSISTEINSALVLKVSWITFLLAKGEVLQMEDDLVISFQLMLCVLDYFIKLSPPMLLKEPYKTAVIPINGSPRTPRRGQNRSARIAKQLENDTRIIEVLCKEHECNIDEVKNVYFKNFIPFMNSLGLVTSNGLPEVENLSKRYEEIYLKNKDLDARLFLDHDKTLQTDSIDSFETQRTPRKSNLDEEVNVIPPHTPVRTVMNTIQQLMMILNSASDQPSENLISYFNNCTVNPKESILKRVKDIGYIFKEKFAKAVGQGCVEIGSQRYKLGVRLYYRVMESMLKSEEERLSIQNFSKLLNDNIFHMSLLACALEVVMATYSRSTSQNLDSGTDLSFPWILNVLNLKAFDFYKVIESFIKAEGNLTREMIKHLERCEHRIMESLAWLSDSPLFDLIKQSKDREGPTDHLESACPLNLPLQNNHTAADMYLSPVRSPKKKGSTTRVNSTANAETQATSAFQTQKPLKSTSLSLFYKKVYRLAYLRLNTLCERLLSEHPELEHIIWTLFQHTLQNEYELMRDRHLDQIMMCSMYGICKVKNIDLKFKIIVTAYKDLPHAVQETFKRVLIKEEEYDSIIVFYNSVFMQRLKTNILQYASTRPPTLSPIPHIPRSPYKFPSSPLRIPGGNIYISPLKSPYKISEGLPTPTKMTPRSRILVSIGESFGTSEKFQKINQMVCNSDRVLKRSAEGSNPPKPLKKLRFDIEGSDEADGSKHLPGESKFQQKLAEMTSTRTRMQKQKMNDSMDTSNKEEK
For B1, the binding was “binds”.

B2: pRb (protein, UniProt P06400 1-928)
chain: B1 chain
modifications: printed only as pRb (no site given)
For B2, the binding was “binds”.
